Laboratory results: PubChem BioAssay AID504834 (National Center for Advancing Translational Sciences (NCATS), 2011)
Several values for one entry are separate records, joined by “and”; a condition that tells them apart may be missing. Identical values can stand only once. Screen size: about 320,000 compounds; about 22,000 (6.9%) were called active. The inconclusive results got no clear call from the source; some entries with a clear call stand among them for comparison. Calls come from the whole dose curve; as a rule, active = well fitted inhibition curve with a large enough effect; inconclusive = small, poorly fitted or top-dose-only effect, or another doubt; inactive = no such curve, though single readings can be large or run the other way. A potency beside an inconclusive call is a rough fit, not a confirmed value.

assay: Primary qHTS for delayed death inhibitors of the malarial parasite plastid, 96 hour incubation; conditions: P. falciparum luciferase reporter growth; series mostly up to 28.7 µM; activity change, negative = inhibition: at the top concentration
Procedure, shortened: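 P. falciparum expressing integrated firefly luciferase grown in erythrocytes (2% hematocrit, 0.05% parasitemia final) with compounds for 96 hours at 37 C, 5% CO2. Growth inhibition read as loss of luminescence after adding luciferase detection reagent.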
% is set by controls: 0 for no effect and ±100 for the full control effect; potency is the fitted concentration of half-maximal effect.

Compound	Potency	activity change, negative = inhibition
CCCC(=O)O[C@]1(C(=O)COC(C)=O)CC[C@H]2C3C[C@H](F)C4=CC(=O)C=CC4(C)[C@@]3(F)[C@@H](O)CC21C (stereo partly specified)	inconclusive: 15.1 µM [inhibitor, single point]	–
CC(NC(=O)CSc1nnc(-c2cc3cc(Cl)ccc3o2)n1C)c1ccccc1 (stereo unspecified)	active: 4.65 µM	–
O=C(Nc1ccc([N+](=O)[O-])cc1Cl)c1cc(Cl)ccc1O	inconclusive: 426 nM [inhibitor, full curve, poor fit] and inconclusive: 262 nM [inhibitor, full curve, poor fit]	–
Cc1ccc(C(=O)Nc2cccnc2)cc1[N+](=O)[O-]	inconclusive: 11.7 µM [inhibitor, single point]	–
COc1ccc(NS(=O)(=O)c2cccc(C(=O)NNC(=O)c3ccc(=O)[nH]c3)c2)cc1	–	inactive: -10.8%
CCC(C(=O)Nc1cccnc1)n1c(=O)[nH]c2ccccc2c1=O (stereo unspecified)	inconclusive: 13.1 µM [inhibitor, partial curve, poor fit]	–
OCCC1CN(Cc2ccc(Oc3ncccn3)cc2)CCN1Cc1ccc(F)c(F)c1 (stereo unspecified)	–	inactive: 8.14%
Cc1ccc(C)c(NC(=O)CN(C)C(=O)c2nn(C)c(=O)c3ccccc23)c1	–	inactive: 30.7%
c1nc(NC2CCCC2)c2[nH]cnc2n1	inconclusive: 1.17 µM [inhibitor, partial curve, poor fit]	–
CCc1ccccc1NC(=O)CCc1nc(-c2ccc(C)cc2)no1	inconclusive: 16.5 µM [inhibitor, partial curve, poor fit]	–
CC(C)(C)NC(=O)CCN(/N=C/c1ccc([N+](=O)[O-])o1)C1=NS(=O)(=O)c2ccccc21	inconclusive: 18.5 µM [inhibitor, single point]	–
CCc1cccc(NC(=O)CCc2c(C)nn(-c3ccc(N4CCCCC4)nn3)c2C)c1	inconclusive: 18.5 µM [inhibitor, single point]	–
Cc1ccc(NC(=O)CSc2nc3c(cc2C#N)C(=O)CCC3)cc1S(=O)(=O)N(C)C	inconclusive: 18.5 µM [inhibitor, single point]	–
CC(C)n1c(SCC(=O)NCc2ccco2)nnc1C1CC1	inconclusive: 18.5 µM [inhibitor, single point]	–
CC(=O)ON1C(C)(C)CC(OC(=O)c2ccccc2)CC1(C)C	inconclusive: 0.586 µM [inhibitor, full curve, poor fit]	–
COc1cc(/C(C)=N/NC(=O)C(O)(c2ccccc2)c2ccccc2)ccc1O	–	inactive: -0.584%
CCC(=O)Nc1ccc(-c2nc3ccccc3c(=O)o2)cc1	–	inactive: -36.4%
CC(C)C[C@H](NC(=O)c1nc[nH]c1C(=O)NC1CCNCC1)C(=O)OCc1ccccc1	–	inactive: -38.4%
CC(=O)c1cc2c(cc1NC(=O)CN1Cc3ccccc3C1=O)OCO2	–	inactive: -10.2%
O=[N+]([O-])c1cccc(/C=N/Nc2nc(NCc3ccccc3)nc(N3CCOCC3)n2)c1	inconclusive: 9.28 µM [inhibitor, partial curve, poor fit]	–
Cc1ccc(S(=O)(=O)N2CCN(c3cnn(-c4ccccc4)c(=O)c3Cl)CC2)cc1	–	inactive: 7.15%
COC(=O)c1ccccc1NC(=O)C(=O)NCc1ccncc1	inconclusive: 14.7 µM [inhibitor, partial curve, poor fit]	–
C=CCc1ccccc1OCC(O)CNC(=O)c1ccccc1C(=O)O (stereo unspecified)	–	inactive: 20.3%
CC1CCCCN1C(=O)CCS(=O)(=O)Cc1ccccc1 (stereo unspecified)	–	inactive: 0%

Compound	Potency	activity change, negative = inhibition
CCCCNC(=O)N1CCN(Cc2cccc(F)c2)CC1	inconclusive: 18.5 µM [inhibitor, single point]	–
COc1ccc(-c2nnc(CSc3nnc(-c4ccncc4)n3C3CCCCC3)o2)cc1OC	active: 9.28 µM	–
O=C(Nc1ccccc1F)c1cccc(C(=O)Nc2ccccc2F)c1	inconclusive: 10.4 µM [inhibitor, single point]	–
COc1ccc(S(=O)(=O)N2CCOCC2)cc1C(=O)Nc1ccc2c(c1)OCO2	–	inactive: -28.2%
COc1ccc(Cl)cc1NC(=O)C(C)Sc1nnc(C2CC2)n1C1CC1 (stereo unspecified)	inconclusive: 18.5 µM [inhibitor, partial curve, poor fit]	–
CC(=O)Nc1ccc(SCC(=O)N(CCC#N)c2cc(C)cc(C)c2)cc1	inconclusive: 10.4 µM [inhibitor, single point]	–
Cc1nc(S/C(=C/c2ccc(-c3ccc(C(=O)O)cc3)o2)C(=O)O)n[nH]1	inconclusive: 10.4 µM [inhibitor, single point]	–
CCc1nc2scc(-c3cccs3)c2c(=O)o1	inconclusive: 6.57 µM [inhibitor, partial curve]	–
Cc1ccc(-n2c(-c3ccccc3)c[nH]c2=S)cc1	–	inactive: 13.6%
CSc1nsc(SCc2ccc(Cl)cc2)n1	–	inactive: 0.736%
Cc1ccc2cccc(O)c2[n+]1[O-]	inconclusive: 0.165 µM [inhibitor, full curve, poor fit]	–
CC(C)Cc1nnc(NC(=O)CCC(=O)N2CC(C)CC(C)C2)s1 (stereo unspecified)	inconclusive: 13.1 µM [inhibitor, partial curve, poor fit]	–
CCn1c(SCC(=O)N2CC(C)OC(C)C2)nc2c([nH]c3ccccc32)c1=O (stereo unspecified)	inconclusive: 18.5 µM [inhibitor, single point]	–
NNC(=O)c1nnn(-c2nonc2N)c1CN1CCCC1	inconclusive: 18.5 µM [inhibitor, single point]	–
Cc1ccc(C)c(NC(=S)Nc2cccnc2)c1	–	inactive: 4.54%
CC(=O)Nc1cccc(C(=O)OCc2ccccc2)c1	–	inactive: -1.18%
O=C(CN1CCN(C(=O)N2CCOCC2)CC1)Nc1ccc(Br)cc1	inconclusive: 18.5 µM [inhibitor, single point]	–
CCc1ccc(NC(=O)CCS(=O)(=O)c2ccc(Br)cc2)cc1	–	inactive: 15.3%
O=C(COc1ccc(Cl)cc1Cl)Nc1ccccc1NS(=O)(=O)c1cccs1	–	inactive: 14.9%
COc1ccc(C(=O)C2CCCN(S(=O)(=O)N(C)C)C2)c(C)c1 (stereo unspecified)	inconclusive: 9.28 µM [inhibitor, single point]	–
CCOC(=O)C1=C(C)N=C2c3ccccc3C(=O)C2C1c1ccc(Br)cc1 (stereo unspecified)	inconclusive: 9.28 µM [inhibitor, partial curve, poor fit]	–
CCN(CC)CCC(c1ccc(N(C)C)cc1)c1c(OC)cc(OC)c2ccc(=O)oc12 (stereo unspecified)	inconclusive: 13.1 µM [inhibitor, single point]	–
COc1ccc(CCNS(=O)(=O)c2ccc(OC)cc2)cc1	inconclusive: 0.0738 µM [inhibitor, full curve, poor fit]	–
O=C(CN1C(=O)/C(=C\c2cccs2)SC1=S)Nc1cccc(C(=O)O)c1	inconclusive: 0.465 µM [inhibitor, full curve, poor fit]	–

Compound	Potency	activity change, negative = inhibition
C[C@H](NC(=O)c1nc[nH]c1C(=O)N(C)Cc1ccccc1)c1ccccc1	–	inactive: 43.7%
Cc1ccc(S(=O)(=O)NCc2c(-c3ccccc3)noc2C)cc1	inconclusive: 18.5 µM [inhibitor, single point]	–
CC(C)NC(=O)CCS(=O)(=O)c1ccc(Br)s1	active: 0.465 µM	–
CCCCn1c(CNC(=O)C23CC4CC(CC(C4)C2)C3)nnc1SC(C)CC (stereo unspecified)	inconclusive: 18.5 µM [inhibitor, single point]	–
CCOC(=O)NC(c1ccc(C(C)C)cc1)C(Cl)(Cl)Cl (stereo unspecified)	inconclusive: 18.5 µM [inhibitor, single point]	–
O=C(O)c1ccc(CSc2nnc(COc3ccc(Cl)cc3Cl)o2)cc1	active: 2.62 µM	–
CC(C)(O)C(=O)N/N=C\c1ccc(OC/C=C/c2ccccc2)cc1	inconclusive: 0.0738 µM [inhibitor, full curve, poor fit]	–
CCc1cc2c(=O)n(C(C)C(=O)OC3CCCCC3)cnc2s1 (stereo unspecified)	–	inactive: -5.41%
CC(=O)c1ccc(OCC(=O)N2CCCC(Nc3ccc(C)c(C)c3)C2)cc1 (stereo unspecified)	inconclusive: 18.5 µM [inhibitor, single point]	–
CNc1nc(N)c([N+](=O)[O-])c(NCc2ccccc2)n1	inconclusive: 7.38 µM [inhibitor, partial curve, poor fit]	–
Cc1cccc(-c2nc3ccccc3c(=O)n2NC(=O)c2ccc([N+](=O)[O-])c(C)c2)c1	–	inactive: 0%
CCC(C)NC(=O)C1CCC(=O)N(c2ccc3c(c2)OCO3)C1c1ccc(OC)cc1 (stereo unspecified)	inconclusive: 4.65 µM [inhibitor, partial curve]	–
CCCc1c(C(=O)Nc2ccc(N3CCOCC3)cc2)cnn1-c1ccccc1	inconclusive: 9.28 µM [inhibitor, partial curve]	–
COc1ccc(OC)c(NC(=O)NNS(=O)(=O)c2ccc(C)cc2C)c1	–	inactive: -13.4%
N#Cc1c(NCc2ccccc2)ccnc1NCc1cccnc1	–	inactive: -20.1%
Cc1occc1-c1nnc(SCC(=O)NC2CCCC2)n1-c1ccccc1	inconclusive: 18.5 µM [inhibitor, single point]	–
O=C(COC(=O)c1ccc(F)cc1F)Nc1cc(S(=O)(=O)N2CCOCC2)ccc1Cl	–	inactive: 126%
CCN(c1ccccc1)S(=O)(=O)c1cccc(C(=O)N(C)CCOc2ccccc2)c1	inconclusive: 10.4 µM [inhibitor, single point]	–
Cc1cc(C)cc(NC(=O)CCc2nc3ccccc3[nH]2)c1	active: 3.29 µM	–
Cc1c(C(=O)N2CCN(C/C=C/c3ccccc3)CC2)oc2c(F)cccc12	–	inactive: 15.1%
O=c1c([N+](=O)[O-])c[nH]c2ccccc12	–	inactive: 19.4%
O=C(Nc1ccc(Br)cn1)c1ccc(Cl)s1	–	inactive: 252%
Cc1ccc(N2C(=O)CC2(C#N)c2ccc(OCc3ccccc3)cc2)cc1 (stereo unspecified)	inconclusive: 18.5 µM [inhibitor, single point]	–
